In paper PMC12777490:
No constants are given. Whether binding was seen depends on the method and setting. Binding seen in cells or lysates may run through a third protein. Some entries that bind do so weakly or less than the wild type.

Protein sequences, listed by entry. Tags and fused reporters are not part of them.
UniProt Q16637: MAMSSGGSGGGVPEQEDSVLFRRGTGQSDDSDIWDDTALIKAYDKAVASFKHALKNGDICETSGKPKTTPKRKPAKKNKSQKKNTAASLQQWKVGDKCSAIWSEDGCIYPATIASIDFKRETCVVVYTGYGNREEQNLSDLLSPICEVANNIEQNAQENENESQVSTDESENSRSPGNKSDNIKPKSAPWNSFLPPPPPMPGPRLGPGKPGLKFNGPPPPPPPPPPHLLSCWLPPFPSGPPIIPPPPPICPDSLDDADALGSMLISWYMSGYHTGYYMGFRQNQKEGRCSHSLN

Assays:
SBP-tagged SMN1 protein = SBP-tagged SMN1 protein (UniProt Q16637); assay: pull-down; SBP-tagged SMN1 co-transfected with the other SMN constituent proteins without a tag in HEK293T; cleared lysate (TBS, 1% Triton X-100) incubated with Dynabeads M-280 Streptavidin for 30 min, washed, eluted by boiling in SDS sample buffer; SDS-PAGE, Strep-Tactin HRP blot and silver staining beside lysates expressing single proteins
[1] = target: SBP-tagged SMN1 protein, Q16637; assay: as above; conditions: remark: other sources report otherwise

Row | binding (SBP-tagged SMN1 protein) | binding [1] | Binder
1 | binds | – | Gemin8 (protein, UniProt Q9NWZ8 1-242) MAAVKASTSKATRPWYSHPVYARYWQHYHQAMAWMQSHHNAYRKAVESCFNLPWYLPSALLPQSSYDNEAAYPQSFYDHHVAWQDYPCSSSHFRRSGQHPRYSSRIQASTKEDQALSKEEEMETESDAEVECDLSNMEITEELRQYFAETERHREERRRQQQLDAERLDSYVNADHDLYCNTRRSVEAPTERPGERRQAEMKRLYGDSAAKIQAMEAAVQLSFDKHCDRKQPKYWPVIPLKF
2 | – | binds | Gemin4, P57678 1-1058 (protein) MDLGPLNICEEMTILHGGFLLAEQLFHPKALAELTKSDWERVGRPIVEALREISSAAAHSQPFAWKKKALIIIWAKVLQPHPVTPSDTETRWQEDLFFSVGNMIPTINHTILFELLKSLEASGLFIQLLMALPTTICHAELERFLEHVTVDTSAEDVAFFLDVWWEVMKHKGHPQDPLLSQFSAMAHKYLPALDEFPHPPKRLRSDPDACPTMPLLAMLLRGLTQIQSRILGPGRKCCALANLADMLTVFALTEDDPQEVSATVYLDKLATVISVWNSDTQNPYHQQALAEKVKEAERDVSLTSLAKLPSETIFVGCEFLHHLLREWGEELQAVLRSSQGTSYDSYRLCDSLTSFSQNATLYLNRTSLSKEDRQVVSELAECVRDFLRKTSTVLKNRALEDITASIAMAVIQQKMDRHMEVCYIFASEKKWAFSDEWVACLGSNRALFRQPDLVLRLLETVIDVSTADRAIPESQIRQVIHLILECYADLSLPGKNKVLAGILRSWGRKGLSEKLLAYVEGFQEDLNTTFNQLTQSASEQGLAKAVASVARLVIVHPEVTVKKMCSLAVVNLGTHKFLAQILTAFPALRFVEEQGPNSSATFMVSCLKETVWMKFSTPKEEKQFLELLNCLMSPVKPQGIPVAALLEPDEVLKEFVLPFLRLDVEEVDLSLRIFIQTLEANACREEYWLQTCSPFPLLFSLCQLLDRFSKYWQLPKEKRCLSLDRKDLAIHILELLCEIVSANAETFSPDVWIKSLSWLHRKLEQLDWTVGLRLKSFFEGHFKCEVPATLFEICKLSEDEWTSQAHPGYGAGTGLLAWMECCCVSSGISERMLSLLVVDVGNPEEVRLFSKGFLVALVQVMPWCSPQEWQRLHQLTRRLLEKQLLHVPYSLEYIQFVPLLNLKPFAQELQLSVLFLRTFQFLCSHSCRDWLPLEGWNHVVKLLCGSLTRLLDSVRAIQAAGPWVQGPEQDLTQEALFVYTQVFCHALHIMAMLHPEVCEPLYVLALETLTCYETLSKTNPSVSSLLQRAHEQRFLKSIAEGIGPEERRQTLLQKMSSF
